Experimental data published in the supplement of paper PMC8256030.
Values joined by “and” are separate entries in the source; they are usually repeats but may differ in a detail not shown here. Equal entries are not always repeated. The list shows a part of the results. Repeats in this data set agree poorly, so a single value says little.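 HEK293T cells were given each compound shortly before transfection with a reporter in which red mCherry is followed by the SARS-CoV-2 frameshift element and then GFP in the −1 frame, so GFP appears only after frameshifting.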

system: HEK293T; assay: percent viability (nuclei count) relative to control; higher = more viable cells; conditions: 10 µM; 24 h

SMILES	percent viability
CO/N=C(\C(=O)N[C@@H]1C(=O)N2C(C(=O)O)=C(COC(C)=O)CS[C@H]12)c1csc(N)n1 [Claforan]	197%
CC(C)(CO)C(O)C(=O)NCCC(=O)O (stereo not given)	340%
CC(C)=CCC/C(C)=C/CC/C(C)=C/CSc1ccccc1C(=O)O [salirasib]	151%
CNC(=O)c1cccc(NCC(=O)NCCc2ccc(OC)c(OC)c2)c1 [ecabapide]	288%
CC(N)C12CC3CC(CC(C3)C1)C2 (stereo not given)	27%
CCC1(C)OC(=O)N(C)C1=O (stereo not given) [paramethadione]	147%
C1N2CN3CN1CN(C2)C3 [methenamine]	153%
O=c1[nH]c(=O)n([C@H]2C[C@H](O)[C@@H](CO)O2)cc1C(F)(F)F [trifluridine]	231% and 153%
CC(=O)OC(C)C[N+](C)(C)C (stereo not given) [methacholine chloride]	127%
Cc1ccc(C(=O)Nc2ccc(S(=O)(=O)O)c3cc(S(=O)(=O)O)cc(S(=O)(=O)O)c23)cc1NC(=O)c1cccc(NC(=O)Nc2cccc(C(=O)Nc3cc(C(=O)Nc4ccc(S(=O)(=O)O)c5cc(S(=O)(=O)O)cc(S(=O)(=O)O)c45)ccc3C)c2)c1 [suramin sodium]	230% and 183%
Cc1cc(C)cc(NC(=O)Cc2ccc(OC(C)(C)C(=O)O)cc2)c1 [efaproxiral]	218%
CC(=O)NS(=O)(=O)c1ccc(N)cc1 [sulfacetamide]	140%
CCC1=C[C@@H]2CN(C1)Cc1c([nH]c3ccccc13)[C@@](C(=O)OC)(c1cc3c(cc1OC)N(C)[C@H]1[C@@](O)(C(=O)OC)[C@H](OC(C)=O)[C@]4(CC)C=CCN5CC[C@]31[C@@H]54)C2 [vinorelbine]	19.5%
C[C@]12C[C@H](O)[C@H]3[C@@H](CCC4=CC(=O)CC[C@@]43C)[C@@H]1CC[C@@H]2C(=O)CO [Corticosterone]	120%
NC(=O)NO [hydroxycarbamide]	185%
Cc1c(C(C)C)c(=O)n(-c2ccccc2)n1C [propyphenazone]	106%
CC(=O)NC[C@H]1CN(c2ccc(N3CCOCC3)c(F)c2)C(=O)O1 [linezolid]	252% and 206%
O=[N+]([O-])c1c(Cl)cccc1-c1c[nH]cc1Cl [pyrrolnitrin]	128%
CN1CCN(c2ncc(-c3cc(Cl)cc(Cl)c3Cl)c(N)n2)CC1 [sipatrigine]	133%
CC(CNC1CCCCC1)OC(=O)c1ccccc1 (stereo not given) [hexylcaine]	48.7%
C[C@]12C=CC(=O)C=C1C(Cl)=C[C@@H]1[C@@H]2[C@@H](O)C[C@@]2(C)[C@H]1CC[C@]2(O)C(=O)CO [cloprednol]	241%
NC(=O)c1ccc([N+](=O)[O-])cc1Cl [aklomide]	199%
C#C[C@]1(OC(C)=O)CC[C@H]2[C@@H]3CCC4=C[C@@H](OC(C)=O)CC[C@@H]4[C@H]3CC[C@@]21C [Etynodiol]	60.9%
COc1ccc(/C=C/C(=O)Nc2ccccc2C(=O)O)cc1OC [tranilast]	261%
NC(=O)c1ccc[n+]([C@@H]2O[C@H](COP(=O)([O-])OP(=O)(O)OC[C@H]3O[C@@H](n4cnc5c(N)ncnc54)[C@H](O)[C@@H]3O)[C@@H](O)[C@H]2O)c1	265%

Rewritten as comma-separated lines: 5 of the compounds above.
SMILES,percent viability
O=c1[nH]c(=O)n([C@H]2C[C@H](O)[C@@H](CO)O2)cc1C(F)(F)F [trifluridine],231% and 153%
CC(=O)OC(C)C[N+](C)(C)C (stereo not given) [methacholine chloride],127%
Cc1ccc(C(=O)Nc2ccc(S(=O)(=O)O)c3cc(S(=O)(=O)O)cc(S(=O)(=O)O)c23)cc1NC(=O)c1cccc(NC(=O)Nc2cccc(C(=O)Nc3cc(C(=O)Nc4ccc(S(=O)(=O)O)c5cc(S(=O)(=O)O)cc(S(=O)(=O)O)c45)ccc3C)c2)c1 [suramin sodium],230% and 183%
Cc1cc(C)cc(NC(=O)Cc2ccc(OC(C)(C)C(=O)O)cc2)c1 [efaproxiral],218%
CC(=O)NS(=O)(=O)c1ccc(N)cc1 [sulfacetamide],140%
